Hit rate of the full screen: of about 230,000 compounds, about 310 (0.13%) were called active. Inconclusive means that the source gave no clear call. Such entries were picked first, then a sample of the others. The call rests on the fitted dose curve; in most records, active means well fitted activation curve with a large enough effect; inconclusive means small, poorly fitted or top-dose-only effect; inactive means no such curve, though single readings can be large or run the other way. Potencies beside an inconclusive call are fits to weak or partial responses and may not hold up.
Experiment: qHTS Multiplex Assay to Identify Dual Action Probes in a Cell Model of Huntington: Cytoprotection (ATP); further: nearly all actives have a fitted effect of over 45% in size;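 on cytoprotection (ATP increase): toxic huntingtin expression switched on by the ecdysone agonist tebufenozide; % of control where 0% means no effect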
Settings: PC12 HTT-Q103 induced, ATP luminescence, 40 h; cytoprotection (ATP increase): at 56.4 µM (top of the series) unless noted
Procedure, shortened: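 Stable PC12 Q103-GFP cells in serum-supplemented, phenol red-free DMEM; induction by tebufenozide at 100 nM final; compound dose series; cell viability quantified luminescently from ATP.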
In the case of `CC(C)(C)C(=O)Cn1ncc(Br)c(Br)c1=O`, the Potency is reported as “inactive”.
For `O=C(CNC(=O)c1ccccc1)NCC(=O)OCC(=O)c1ccc([N+](=O)[O-])cc1`, the cytoprotection (ATP increase) was inactive: 6.19% [at 10 µM].
For `Cc1[nH]c(C)c(Cl)c(=O)c1Cl`, the Potency was inconclusive: 0.0891 µM [activator, full curve, poor fit].
In the case of `COc1ccc(NC(=O)C(=O)NCCN2CCN(C(=O)c3ccco3)CC2)cc1`, the Potency is reported as inconclusive: 0.631 µM [activator, single point].
With `COC(=O)N1CCC2(CCCN(c3cccc(-c4ccccc4)c3)C2)CC1` the Potency was inconclusive: 0.794 µM [activator, full curve].
For `Cc1nc(NC(=O)C23CC4CC(CC(C4)C2)C3)sc1Cc1ccc2c(c1)OCO2`, the Potency was inconclusive: 5.62 µM [activator, single point].
For `CC(C)(Oc1ccc(C2CCCc3ccccc32)cc1)C(=O)O` (centres undefined), the Potency was inconclusive: 1.26 µM [activator, partial curve, poor fit].
With `C[C@@H](C(=O)Nc1ccc2ccccc2c1)[C@H]1C[C@]1(C)[C@H](NS(=O)(=O)c1ccc2ccccc2c1)c1ccccc1` the Potency was “inactive”.
With `CCN(CC)c1ccc2c(C)c(Cl)c(=O)oc2c1` the Potency was inconclusive: 5.62 µM [activator, single point].
With `NC(=NCCc1c[nH]c2ccccc12)NC(=O)c1ccc(Cl)cc1` the cytoprotection (ATP increase) was inactive: 44.7% [at 10 µM].
For `Cc1ccccc1NC(=S)NCc1cccs1`, the Potency was inconclusive: 3.16 µM [activator, partial curve].
With `COC(=O)CCn1c(C)cc(C(=O)COc2ccccc2C(N)=O)c1C` the Potency was “inactive”.
With `O=C(CCN1C(=O)C2CC=C(Cl)CC2C1=O)NCc1ccccc1` (centres undefined) the cytoprotection (ATP increase) was inactive: -9% [at 1.9 µM].
In the case of `CCOCCCNC(=O)c1ccc2c(c1)OCO2`, the Potency is reported as “inactive”.
In the case of `CC1(C)OC(C(O)(c2cccc3c2oc2ccccc23)c2cccc3c2oc2ccccc23)C(C(O)(c2cccc3c2oc2ccccc23)c2cccc3c2oc2ccccc23)O1` (centres undefined), the Potency is reported as inconclusive: 1.12 µM [activator, single point].
For `COc1ccccc1/C=C/C(=O)Nc1ccc2c(c1)CCC2`, the Potency was inconclusive: 1.26 µM [activator, single point].
In the case of `CC(=O)N[C@H](c1ccccc1)[C@@]1(C)C[C@@H]1[C@@H](C)C(=O)Nc1ccc2ccccc2c1`, the Potency is reported as inconclusive: 15.8 µM [activator, single point].
In the case of `c1ccc2ccccc2c1`, the Potency is reported as inconclusive: 0.282 µM [activator, full curve, poor fit].
With `C=CCN1C(=O)CSc2ccc(C(=O)NCCC3=CCCCC3)cc21` the Potency was “inactive”.
Potency means the concentration at half of the fitted maximal effect.
